PubChem BioAssay AID1347076 (National Center for Advancing Translational Sciences (NCATS), 2019)
Hit rate of the full screen: of about 400,000 compounds, about 13,000 (3.2%) were called active. The shares of active, inactive and inconclusive entries below differ from those in the screen. Calls come from the whole dose curve; as a rule, active = well fitted cell-killing curve with a large enough effect; inconclusive = small, poorly fitted or top-dose-only effect, or effect the other way; inactive = flat fitted curve, though single readings scatter. Potencies of inconclusive entries are doubtful fits and often do not repeat.

Assay: qHTS assay for MDR1-selective chemotherapeutics: Primary screen using the drug-selected MDR subline cells KB-V1; note: nearly all actives have a fitted effect of over 60% in size
Settings: KB-V1 MDR cells viability, CellTiter-Glo, 72 h; activity change, negative = cytotoxicity: at 46.1 µM (top of the series)
Summary of the method: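 Potencies derive from concentration-effect curves fitted to normalized luminescence (CellTiter-Glo) of KB-V1 cells treated for 72 h at 37 degrees C in phenol-red-free DMEM containing 10% FBS.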
% is set by controls: 0 for no effect and ±100 for the full control effect; potency is the fitted concentration of half-maximal effect.

| Compound | Potency | activity change, negative = cytotoxicity |
| --- | --- | --- |
| CCC(C)(C)n1nnnc1C(c1ccc(C)cc1)N(Cc1ccco1)Cc1cccs1 (configuration not stated) | active: 11.2 µM | – |
| CCN(CC(=O)Nc1ccc(NC(C)=O)cc1)C(=O)c1sc2nc3n(c(=O)c2c1C)CCC3 | inconclusive: 29.1 µM [rising, single point] | – |
| CCOC(=O)c1sc(NC(=O)CSc2n[nH]c(-c3ccc(Cl)cc3Cl)n2)c(C#N)c1C | inconclusive: 23.1 µM [cytotoxic, single point] | – |
| Cc1noc(C)c1COc1ccc(C(=O)OCC(=O)N2c3ccccc3NC(=O)C2(C)C)cc1 | inconclusive: 20.6 µM [cytotoxic, single point] | – |
| CN(C)/C(Cn1cncn1)=C1/N=C(c2c(F)cccc2F)OC1=O | – | inactive: 23% |
| CCn1c(SCC(=O)Nc2oc(-c3ccccc3)c(-c3ccccc3)c2C#N)nnc1-c1ccco1 | inconclusive: 16.4 µM [cytotoxic, partial curve] | – |
| CN(C)CCCN(C(=O)c1cc(Cl)sc1Cl)c1nc2cc3c(cc2s1)OCO3 | inconclusive: 23.1 µM [cytotoxic, partial curve, poor fit] | – |
| CC(Cc1ccccc1)=NNc1ccc([N+](=O)[O-])cc1[N+](=O)[O-] | – | inactive: -3.33% |
| CCN(CC)C(=O)c1cccc(-c2csc(C(C)(O)c3ccccc3)n2)c1 (configuration not stated) | inconclusive: 5.17 µM [cytotoxic, full curve] | – |
| CN(Cc1c(C(=O)N/N=C/c2cccc(O)c2)nnn1-c1nonc1N)c1ccccc1 | inconclusive: 32.6 µM [rising, single point] | – |
| Cc1cccc(N=C2NC(=O)/C(=C/c3cccn3C)S2)c1C | inconclusive: 18.4 µM [cytotoxic, single point] | – |
| CCc1ccc(NCc2nc(-c3ccccc3)no2)cc1 | inconclusive: 25.9 µM [cytotoxic, single point] | – |
| O=C1OCC(CO)(CO)N=C1NNc1cc(Cl)ccc1Cl | – | inactive: -2.2% |
| CCCCCC(=O)Nc1cccc(C2=NOC3(C2)C[C@H](C(N)=O)N(C(=O)COc2ccc(Cl)cc2)C3)c1 (some centres not stated) | inconclusive: 0.517 µM [rising, full curve, poor fit] | – |
| CCOc1cc(CNCc2ccccn2)ccc1OCC(=O)NC(C)(C)C | inconclusive: 1.84 µM [cytotoxic, full curve, poor fit] | – |
| Cc1ccc(-c2cc(C(F)(F)F)c(C#N)c(SCC(=O)Nc3ccccc3)n2)cc1 | inconclusive: 6.51 µM [rising, partial curve] | – |
| Cc1cccc(CN2CCc3c([nH]c4ccccc34)C2)c1 | inconclusive: 16.4 µM [cytotoxic, single point] | – |
| O=C(NCc1ccco1)C(=O)c1cn(CC(=O)N2CCCCC2)c2ccccc12 | inconclusive: 6.51 µM [cytotoxic, full curve] | – |
| COc1cc(OC)nc(Nc2nc(C(N)Cc3ccc(C(F)(F)F)cc3)cs2)n1 (configuration not stated) | inconclusive: 32.6 µM [cytotoxic, single point] | – |
| COc1ccc(CNC(=O)CCSc2ccc(F)cc2)cc1OC | – | inactive: 1.43% |
| CCOC(=O)C1CCN(C(=O)Cc2ccc(-c3ccccc3)cc2)CC1 | inconclusive: 6.51 µM [rising, partial curve] | – |
| CCOc1ccc(S(=O)(=O)N2CCOCC2)cc1NC(=O)C1=COCCO1 | inconclusive: 20.6 µM [cytotoxic, single point] | – |
| CCC(C)[C@H]1COCCS(=O)(=O)N1Cc1ccc(C)cc1 (some centres not stated) | inconclusive: 8.2 µM [cytotoxic, partial curve, poor fit] | – |

| Compound | Potency | activity change, negative = cytotoxicity |
| --- | --- | --- |
| Cc1nn(Cc2c(F)c(F)c(F)c(F)c2F)c(C)c1NC(=O)c1ccc(COc2ccccc2Cl)o1 | active: 2.59 µM | – |
| CC(NC(=O)c1ccc(NC(=O)c2ccco2)cc1)c1ccccc1 (configuration not stated) | inconclusive: 20.6 µM [cytotoxic, single point] | – |
| COc1ccc2nc(C)cc(Nc3ccccc3O)c2c1 | inconclusive: 16.4 µM [cytotoxic, single point] | – |
| Cc1ccc(N(CC(O)CON=C2c3ccccc3-c3ccccc32)S(C)(=O)=O)cc1 (configuration not stated) | active: 23.1 µM | – |
| CCOc1cccc(C2c3c(-c4cc(C)ccc4O)n[nH]c3C(=O)N2Cc2ccco2)c1 (configuration not stated) | inconclusive: 29.1 µM [cytotoxic, single point] | – |
| CCOc1ncccc1C(=O)N1CCN(c2ccc(C(F)(F)F)cn2)CC1 | inconclusive: 10.3 µM [cytotoxic, partial curve] | – |
| O=C(CN1C(=O)/C(=C/c2ccccc2)SC1=S)N1CCN(CCc2ccccn2)CC1 | – | inactive: -15.9% |
| Cc1cc(S(=O)(=O)NCCC2=CCCCC2)ccc1Br | inconclusive: 0.0461 µM [rising, full curve] | – |
| CN(C)c1ccc(/C=C2\C=Cc3ccccc32)cc1Cl | inconclusive: 16.4 µM [cytotoxic, partial curve, poor fit] | – |
| CSc1nnc(C)c(=O)n1COC(=O)COc1ccc(Cl)cc1Cl | inconclusive: 16.4 µM [rising, single point] | – |
| CC(C)(C)NC(=O)C(c1ccco1)N(C(=O)Cn1nnc(-c2ccc(F)cc2)n1)c1ccccc1F (configuration not stated) | active: 18.4 µM | – |
| Cc1cccc(Cc2c(C)nc3nc(SCC(=O)O)nn3c2C)c1 | inconclusive: 29.1 µM [rising, single point] | – |
| Cc1cc(C(C)(C)CC(C)(C)C)ccc1OCCOCC[N+](C)(C)Cc1ccccc1 | – | inactive: 8.34% |
| O=C1/C(=C/c2ccc([N+](=O)[O-])cc2)C=C(c2ccccc2)N1c1ccccc1 | – | inactive: 9.53% |
| Cc1ccc(NC(=O)Cn2c(=O)oc3cc(S(=O)(=O)NCc4ccccc4)ccc32)cc1 | – | inactive: 1.29% |
| CCCCc1ccc(Nc2nc(CCC)cc(=O)[nH]2)cc1 | inconclusive: 16.4 µM [cytotoxic, single point] | – |
| N#C/C(=C\c1ccccc1)c1ccccn1 | inconclusive: 20.6 µM [cytotoxic, single point] | – |
| O=C(COc1ccc(Cl)cc1Cl)NNC(=S)NC(=O)c1ccco1 | inconclusive: 18.4 µM [cytotoxic, single point] | – |
| COc1ccc(-c2nnc(SC(C)C(=O)Nc3nccs3)n2-c2ccccc2)cc1OC (configuration not stated) | active: 14.6 µM | – |
| COc1ccc(C2CCCN2CC(O)COc2ccccc2C(C)C)cc1 (configuration not stated) | inconclusive: 8.2 µM [cytotoxic, partial curve] | – |
| O=S(=O)(c1cc(Cl)ccc1Cl)N1CCN(Cc2ccco2)CC1 | inconclusive: 29.1 µM [cytotoxic, single point] | – |
| CC(C)(C)NC(=O)NC(=O)COC(=O)C1CC(=O)N(Cc2ccccc2)C1 (configuration not stated) | – | inactive: 9.82% |
| COc1cccc(NC(=O)C2CCN(c3nn4cc(-c5ccc(F)cc5)nc4s3)CC2)c1 | – | inactive: 0.156% |

| Compound | Potency | activity change, negative = cytotoxicity |
| --- | --- | --- |
| Cc1ccccc1CN1C(=O)C(O)(CC(=O)c2ccncc2)c2ccccc21 (configuration not stated) | inconclusive: 29.1 µM [cytotoxic, single point] | – |
| CC(=O)C1=C(O)C(=O)N(c2ccc(O)cc2)C1c1ccc([N+](=O)[O-])cc1 (configuration not stated) | inconclusive: 14.6 µM [rising, partial curve] | – |
| O=C(CN1CCN(c2ccccc2)CC1)N1CCN(c2ccccc2)CC1 | active: 20.6 µM | – |
| COc1ccc(NC2=Nc3ccccc3N3C2=Nc2c(c(C)nn2-c2ccc(C)cc2)C3c2cccnc2)cc1 (configuration not stated) | inconclusive: 29.1 µM [cytotoxic, partial curve, poor fit] | – |
| Cc1cc(C)c(NS(=O)(=O)c2ccccc2)c(C)c1NS(=O)(=O)c1ccccc1 | – | inactive: 12.9% |
| Cc1cc(C)c(NC(=S)NC(=O)c2ccc(-c3ccccc3)cc2)c(C)c1 | – | inactive: -7.27% |
| COC(=O)C1(C)CCCC2(C)C3CCC(C(C)C)C(CO)C3C(CO)CC12 (configuration not stated) | inconclusive: 23.1 µM [cytotoxic, single point] | – |
| CC1CCCC(C)N1C(=O)CSc1nnc(COc2ccc(F)cc2)o1 (configuration not stated) | inconclusive: 6.51 µM [cytotoxic, partial curve] | – |
| O=C(c1ccco1)N1CCN=C1SCc1ccc(F)cc1 | inconclusive: 20.6 µM [rising, single point] | – |
| O=C(c1cccs1)N1N=C(c2ccccc2)CC1c1ccc(O)cc1 (configuration not stated) | active: 13 µM | – |
| O=C(NCc1ccco1)C1CCN(S(=O)(=O)c2ccccc2C(F)(F)F)CC1 | inconclusive: 18.4 µM [cytotoxic, single point] | – |
| O=[N+]([O-])c1cnc(Sc2ccncn2)c([N+](=O)[O-])c1 | – | inactive: -5.02% |
| Cc1ccc(S(=O)(=O)N2CCC(C(=O)OCC(=O)N(C)Cc3ccccc3)CC2)cc1C | inconclusive: 32.6 µM [cytotoxic, single point] | – |
| Cc1ncsc1C(=O)NCc1ccc(N2CCCC2=O)cc1 | active: 16.4 µM | – |
| CCN(C[C@H]1N[C@@](C)(C(=O)OC)[C@H]2C(=O)N(C)C(=O)[C@@H]12)C(=O)c1ccc(C)cc1 | inconclusive: 32.6 µM [rising, single point] | – |
| COc1cc(OC)c(OC)cc1/C=N/NC(=O)c1ccc(=O)n(C)c1 | – | inactive: -1.23% |
| O=C(CC(C(=O)NCc1ccccc1)c1nc2ccccc2c(=O)[nH]1)NCc1ccccc1 (configuration not stated) | inconclusive: 20.6 µM [cytotoxic, partial curve] | – |
| CCn1c(N2CCN(C(=S)Nc3ccc(OC)cc3)CC2)nc2ccccc21 | inconclusive: 9.2 µM [cytotoxic, partial curve] | – |
| CC(C)C[C@H]1CNC(=S)N1CC1CCCN1C[C@H](Cc1ccccc1)N1C[C@H](Cc2ccc(O)cc2)N(CC2CCCCC2)C1=S (some centres not stated) | inconclusive: 16.4 µM [cytotoxic, single point] | – |
| O=C(NC(c1ccc(F)cc1)c1ccc2ccccc2n1)C1CCN(Cc2ccc(Oc3ccccc3)cc2)CC1 (configuration not stated) | – | inactive: -19.8% |
| CN(C)CCCn1c(=O)n(CCc2ccccc2)c(=O)c2c3c(sc21)CCCCC3 | inconclusive: 18.4 µM [cytotoxic, partial curve, poor fit] | – |

Structures shown so far with a furan ring, fused or not (11):

| Compound | Potency | activity change, negative = cytotoxicity |
| --- | --- | --- |
| CCC(C)(C)n1nnnc1C(c1ccc(C)cc1)N(Cc1ccco1)Cc1cccs1 (configuration not stated) | active: 11.2 µM | – |
| CCn1c(SCC(=O)Nc2oc(-c3ccccc3)c(-c3ccccc3)c2C#N)nnc1-c1ccco1 | inconclusive: 16.4 µM [cytotoxic, partial curve] | – |
| O=C(NCc1ccco1)C(=O)c1cn(CC(=O)N2CCCCC2)c2ccccc12 | inconclusive: 6.51 µM [cytotoxic, full curve] | – |
| Cc1nn(Cc2c(F)c(F)c(F)c(F)c2F)c(C)c1NC(=O)c1ccc(COc2ccccc2Cl)o1 | active: 2.59 µM | – |
| CC(NC(=O)c1ccc(NC(=O)c2ccco2)cc1)c1ccccc1 (configuration not stated) | inconclusive: 20.6 µM [cytotoxic, single point] | – |
| CCOc1cccc(C2c3c(-c4cc(C)ccc4O)n[nH]c3C(=O)N2Cc2ccco2)c1 (configuration not stated) | inconclusive: 29.1 µM [cytotoxic, single point] | – |
| CC(C)(C)NC(=O)C(c1ccco1)N(C(=O)Cn1nnc(-c2ccc(F)cc2)n1)c1ccccc1F (configuration not stated) | active: 18.4 µM | – |
| O=C(COc1ccc(Cl)cc1Cl)NNC(=S)NC(=O)c1ccco1 | inconclusive: 18.4 µM [cytotoxic, single point] | – |
| O=S(=O)(c1cc(Cl)ccc1Cl)N1CCN(Cc2ccco2)CC1 | inconclusive: 29.1 µM [cytotoxic, single point] | – |
| O=C(c1ccco1)N1CCN=C1SCc1ccc(F)cc1 | inconclusive: 20.6 µM [rising, single point] | – |
| O=C(NCc1ccco1)C1CCN(S(=O)(=O)c2ccccc2C(F)(F)F)CC1 | inconclusive: 18.4 µM [cytotoxic, single point] | – |

Pulled one by one from the list above (2):

| Compound | Potency | activity change, negative = cytotoxicity |
| --- | --- | --- |
| O=C(c1cccs1)N1N=C(c2ccccc2)CC1c1ccc(O)cc1 (configuration not stated) | active: 13 µM | – |
| Cc1ncsc1C(=O)NCc1ccc(N2CCCC2=O)cc1 | active: 16.4 µM | – |
